No constants are given. Whether binding was seen depends on the method and setting. Some results given as binding are weak or reduced against the parent protein; the word gives no strength.

By UniProt entry, the sequences of proteins in these tests, tags left out. Residues count along the entry.
UniProt P41597: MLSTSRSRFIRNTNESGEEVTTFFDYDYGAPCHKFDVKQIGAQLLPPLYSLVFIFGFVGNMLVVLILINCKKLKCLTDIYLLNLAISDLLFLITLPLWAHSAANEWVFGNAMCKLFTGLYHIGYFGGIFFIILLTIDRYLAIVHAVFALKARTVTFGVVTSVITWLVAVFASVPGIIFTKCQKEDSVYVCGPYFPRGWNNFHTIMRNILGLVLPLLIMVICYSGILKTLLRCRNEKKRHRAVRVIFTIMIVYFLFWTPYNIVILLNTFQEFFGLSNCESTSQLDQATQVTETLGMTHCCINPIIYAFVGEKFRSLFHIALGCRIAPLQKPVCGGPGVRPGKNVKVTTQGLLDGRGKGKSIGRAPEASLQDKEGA
UniProt P13500, residues 24-99: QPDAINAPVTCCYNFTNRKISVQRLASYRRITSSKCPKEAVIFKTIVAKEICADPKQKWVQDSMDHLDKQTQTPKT

For 1 substance, binding results are on record in PMC4007430.

This test deals with CCR2 expressed on THP1 cells (human (endogenous in THP-1)) (UniProt P41597). Nature of the test: flow cytometry on cells; competition: 60 ng/well Alexa-CCL2 with 1 μg ACKR2-N(s) or ACKR2-N(un-s), added together or precomplexed 15 min at room temperature in PBS, 1 h at 37 °C; HEK ACKR2 cells or THP1 cells; the chemokine and the receptor on cells; only the binder purified.

For the substance “CCL2 labeled with Alexa Fluor 647 (from UniProt P13500 24-99) (ligand)”, the binding result is “binds”.
